# Laboratory results from the supplement of paper PMC11438910.
# The list shows a part of the results. The signal is at background level for most entries.
# Legend:
# Assay in all cases: fluorescence intensity of antibody binding to polysaccharide-coupled beads; higher = stronger binding
# [1] = target: pneumococcal polysaccharide Pn41A
# [2] = target: pneumococcal polysaccharide Pn41F
# [3] = target: pneumococcal polysaccharide Pn42
# [4] = target: pneumococcal polysaccharide Pn43
# [5] = target: pneumococcal polysaccharide Pn44
# [6] = target: pneumococcal polysaccharide Pn45
# [7] = target: pneumococcal polysaccharide Pn46
# [8] = target: pneumococcal polysaccharide Pn47A
# [9] = target: pneumococcal polysaccharide Pn47F
# [10] = target: pneumococcal polysaccharide Pn48
# [11] = target: pneumococcal polysaccharide Pn5
# [12] = target: pneumococcal polysaccharide Pn6A
# [13] = target: pneumococcal polysaccharide Pn6B
# [14] = target: pneumococcal polysaccharide Pn6C
# [15] = target: pneumococcal polysaccharide Pn6D
# [16] = target: pneumococcal polysaccharide Pn7A
# [17] = target: pneumococcal polysaccharide Pn7B
# [18] = target: pneumococcal polysaccharide Pn7C
# [19] = target: pneumococcal polysaccharide Pn7F
# [20] = target: pneumococcal polysaccharide Pn8
# [21] = target: pneumococcal polysaccharide Pn9A
# [22] = target: pneumococcal polysaccharide Pn9L
# [23] = target: pneumococcal polysaccharide Pn9N
# [24] = antibody concentration 2.8593 ng/mL
# [25] = antibody concentration 15.2894 ng/mL
# [26] = antibody concentration 81.7561 ng/mL
# [27] = antibody concentration 437.17 ng/mL
# [28] = antibody concentration 2337.65 ng/mL
# [29] = antibody concentration 12500 ng/mL
# [30] = antibody concentration 0.1 ng/mL
# [31] = antibody concentration 0.534724 ng/mL
binder,measurement,setting,value
4-99.2 (protein) chain 1: QVQLQESGPGLVKPSETLSLTCAVSGYSIRSAYEWGWIRQPPGKGLEYIGYISGESGNTYYSPSLKSRVTISRDTSKNQFSLRLSSVTAADSAVYYCARRGQLIGFDFWGQGVLVTVSS chain 2: QAAPTQPPSVSGSPGQSVTISCTGTSSDIGYYNAVSWYQHLPGKAPKLMIYEVSKRPSGVSDRFSGSKSGNTASLTISGLQAEDEADYYCSSYAGSNTYIFGAGTRLTVL,fluorescence intensity,[1]; [24],22 MFI
same,fluorescence intensity,[1]; [25],22.5 MFI
same,fluorescence intensity,[1]; [26],23 MFI
same,fluorescence intensity,[1]; [27],22.5 MFI
same,fluorescence intensity,[1]; [28],25 MFI
same,fluorescence intensity,[1]; [29],28 MFI
same,fluorescence intensity,[2]; [30],12.5 MFI
same,fluorescence intensity,[2]; [31],12 MFI
same,fluorescence intensity,[2]; [24],12.8 MFI
same,fluorescence intensity,[2]; [25],12 MFI
same,fluorescence intensity,[2]; [26],12.5 MFI
same,fluorescence intensity,[2]; [27],12 MFI
same,fluorescence intensity,[2]; [28],13 MFI
same,fluorescence intensity,[2]; [29],18.5 MFI
same,fluorescence intensity,[3]; [30],12 MFI
same,fluorescence intensity,[3]; [31],10.8 MFI
same,fluorescence intensity,[3]; [24],11 MFI
same,fluorescence intensity,[3]; [25],11 MFI
same,fluorescence intensity,[3]; [26],10.5 MFI
same,fluorescence intensity,[3]; [27],11.5 MFI
same,fluorescence intensity,[3]; [28],13 MFI
same,fluorescence intensity,[3]; [29],18.5 MFI
same,fluorescence intensity,[4]; [30],13.5 MFI
same,fluorescence intensity,[4]; [31],14.5 MFI
same,fluorescence intensity,[4]; [24],15.5 MFI
same,fluorescence intensity,[4]; [25],14 MFI
same,fluorescence intensity,[4]; [26],15.5 MFI
same,fluorescence intensity,[4]; [27],16.5 MFI
same,fluorescence intensity,[4]; [28],19.5 MFI
same,fluorescence intensity,[4]; [29],55.5 MFI
same,fluorescence intensity,[5]; [30],25 MFI
same,fluorescence intensity,[5]; [31],23.5 MFI
same,fluorescence intensity,[5]; [24],23.5 MFI
same,fluorescence intensity,[5]; [25],23.5 MFI
same,fluorescence intensity,[5]; [26],23.5 MFI
same,fluorescence intensity,[5]; [27],24.5 MFI
same,fluorescence intensity,[5]; [28],25.5 MFI
same,fluorescence intensity,[5]; [29],31.8 MFI
same,fluorescence intensity,[6]; [30],11.5 MFI
same,fluorescence intensity,[6]; [31],11 MFI
same,fluorescence intensity,[6]; [24],9.25 MFI
same,fluorescence intensity,[6]; [25],11 MFI
same,fluorescence intensity,[6]; [26],11 MFI
same,fluorescence intensity,[6]; [27],11 MFI
same,fluorescence intensity,[6]; [28],11.5 MFI
same,fluorescence intensity,[6]; [29],15.5 MFI
same,fluorescence intensity,[7]; [30],22.5 MFI
same,fluorescence intensity,[7]; [31],23.5 MFI
same,fluorescence intensity,[7]; [24],22.8 MFI
same,fluorescence intensity,[7]; [25],22.5 MFI
same,fluorescence intensity,[7]; [26],22.2 MFI
same,fluorescence intensity,[7]; [27],23.5 MFI
same,fluorescence intensity,[7]; [28],25.8 MFI
same,fluorescence intensity,[7]; [29],39.8 MFI
same,fluorescence intensity,[8]; [30],15 MFI
same,fluorescence intensity,[8]; [31],14.5 MFI
same,fluorescence intensity,[8]; [24],14.8 MFI
same,fluorescence intensity,[8]; [25],15.5 MFI
same,fluorescence intensity,[8]; [26],15.8 MFI
same,fluorescence intensity,[8]; [27],15 MFI
same,fluorescence intensity,[8]; [28],16 MFI
same,fluorescence intensity,[8]; [29],20.5 MFI
same,fluorescence intensity,[9]; [30],11.5 MFI
same,fluorescence intensity,[9]; [31],11.5 MFI
same,fluorescence intensity,[9]; [24],12 MFI
same,fluorescence intensity,[9]; [25],11.5 MFI
same,fluorescence intensity,[9]; [26],11.5 MFI
same,fluorescence intensity,[9]; [27],12 MFI
same,fluorescence intensity,[9]; [28],13 MFI
same,fluorescence intensity,[9]; [29],25.5 MFI
same,fluorescence intensity,[10]; [30],20 MFI
same,fluorescence intensity,[10]; [31],19.5 MFI
same,fluorescence intensity,[10]; [24],19 MFI
same,fluorescence intensity,[10]; [25],19.5 MFI
same,fluorescence intensity,[10]; [26],20 MFI
same,fluorescence intensity,[10]; [27],22 MFI
same,fluorescence intensity,[10]; [28],22.5 MFI
same,fluorescence intensity,[10]; [29],39.5 MFI
same,fluorescence intensity,[11]; [30],8.5 MFI
same,fluorescence intensity,[11]; [31],9 MFI
same,fluorescence intensity,[11]; [24],8 MFI
same,fluorescence intensity,[11]; [25],8.5 MFI
same,fluorescence intensity,[11]; [26],7.5 MFI
same,fluorescence intensity,[11]; [27],9.5 MFI
same,fluorescence intensity,[11]; [28],11.5 MFI
same,fluorescence intensity,[11]; [29],29.5 MFI
same,fluorescence intensity,[12]; [30],19.5 MFI
same,fluorescence intensity,[12]; [31],19.5 MFI
same,fluorescence intensity,[12]; [24],20.8 MFI
same,fluorescence intensity,[12]; [25],22 MFI
same,fluorescence intensity,[12]; [26],19.5 MFI
same,fluorescence intensity,[12]; [27],22.5 MFI
same,fluorescence intensity,[12]; [28],23 MFI
same,fluorescence intensity,[12]; [29],31 MFI
same,fluorescence intensity,[13]; [30],18.5 MFI
same,fluorescence intensity,[13]; [31],18.8 MFI
same,fluorescence intensity,[13]; [24],18.8 MFI
same,fluorescence intensity,[13]; [25],19 MFI
same,fluorescence intensity,[13]; [26],18.2 MFI
same,fluorescence intensity,[13]; [27],20 MFI
same,fluorescence intensity,[13]; [28],21.2 MFI
same,fluorescence intensity,[13]; [29],30.5 MFI
same,fluorescence intensity,[14]; [30],17.2 MFI
same,fluorescence intensity,[14]; [31],28.8 MFI
same,fluorescence intensity,[14]; [24],46 MFI
same,fluorescence intensity,[14]; [25],100 MFI
same,fluorescence intensity,[14]; [26],104 MFI
same,fluorescence intensity,[14]; [27],94 MFI
same,fluorescence intensity,[14]; [28],108 MFI
same,fluorescence intensity,[14]; [29],72.8 MFI
same,fluorescence intensity,[15]; [30],17 MFI
same,fluorescence intensity,[15]; [31],16.2 MFI
same,fluorescence intensity,[15]; [24],16.5 MFI
same,fluorescence intensity,[15]; [25],16.8 MFI
same,fluorescence intensity,[15]; [26],14 MFI
same,fluorescence intensity,[15]; [27],17 MFI
same,fluorescence intensity,[15]; [28],19 MFI
same,fluorescence intensity,[15]; [29],23.5 MFI
same,fluorescence intensity,[16]; [30],21 MFI
same,fluorescence intensity,[16]; [31],18 MFI
same,fluorescence intensity,[16]; [24],17.5 MFI
same,fluorescence intensity,[16]; [25],19.5 MFI
same,fluorescence intensity,[16]; [26],21.5 MFI
same,fluorescence intensity,[16]; [27],23 MFI
same,fluorescence intensity,[16]; [28],27.2 MFI
same,fluorescence intensity,[16]; [29],88.5 MFI
same,fluorescence intensity,[17]; [30],15 MFI
same,fluorescence intensity,[17]; [31],16 MFI
same,fluorescence intensity,[17]; [24],16.8 MFI
same,fluorescence intensity,[17]; [25],17.5 MFI
same,fluorescence intensity,[17]; [26],16.5 MFI
same,fluorescence intensity,[17]; [27],16 MFI
same,fluorescence intensity,[17]; [28],18 MFI
same,fluorescence intensity,[17]; [29],32.5 MFI
same,fluorescence intensity,[18]; [30],16 MFI
same,fluorescence intensity,[18]; [31],14.5 MFI
same,fluorescence intensity,[18]; [24],16 MFI
same,fluorescence intensity,[18]; [25],17 MFI
same,fluorescence intensity,[18]; [26],16.5 MFI
same,fluorescence intensity,[18]; [27],17 MFI
same,fluorescence intensity,[18]; [28],18.5 MFI
same,fluorescence intensity,[18]; [29],27.8 MFI
same,fluorescence intensity,[19]; [30],13 MFI
same,fluorescence intensity,[19]; [31],14 MFI
same,fluorescence intensity,[19]; [24],14.5 MFI
same,fluorescence intensity,[19]; [25],14 MFI
same,fluorescence intensity,[19]; [26],14.5 MFI
same,fluorescence intensity,[19]; [27],15.5 MFI
same,fluorescence intensity,[19]; [28],19.5 MFI
same,fluorescence intensity,[19]; [29],58 MFI
same,fluorescence intensity,[20]; [30],19.5 MFI
same,fluorescence intensity,[20]; [31],20.5 MFI
same,fluorescence intensity,[20]; [24],19.5 MFI
same,fluorescence intensity,[20]; [25],19.5 MFI
same,fluorescence intensity,[20]; [26],21.5 MFI
same,fluorescence intensity,[20]; [27],23.5 MFI
same,fluorescence intensity,[20]; [28],25.5 MFI
same,fluorescence intensity,[20]; [29],38 MFI
same,fluorescence intensity,[21]; [30],19 MFI
same,fluorescence intensity,[21]; [31],19 MFI
same,fluorescence intensity,[21]; [24],18.5 MFI
same,fluorescence intensity,[21]; [25],21 MFI
same,fluorescence intensity,[21]; [26],21 MFI
same,fluorescence intensity,[21]; [27],17.8 MFI
same,fluorescence intensity,[21]; [28],22.8 MFI
same,fluorescence intensity,[21]; [29],34 MFI
same,fluorescence intensity,[22]; [30],17.5 MFI
same,fluorescence intensity,[22]; [31],16 MFI
same,fluorescence intensity,[22]; [24],16.5 MFI
same,fluorescence intensity,[22]; [25],17.2 MFI
same,fluorescence intensity,[22]; [26],18 MFI
same,fluorescence intensity,[22]; [27],19.2 MFI
same,fluorescence intensity,[22]; [28],18 MFI
same,fluorescence intensity,[22]; [29],27 MFI
same,fluorescence intensity,[23]; [30],15.5 MFI
same,fluorescence intensity,[23]; [31],14.5 MFI
same,fluorescence intensity,[23]; [24],16.5 MFI
same,fluorescence intensity,[23]; [25],14.5 MFI
same,fluorescence intensity,[23]; [26],18.8 MFI
same,fluorescence intensity,[23]; [27],16.5 MFI
